Record: PubChem BioAssay AID1259425 (University of Nebraska Medical Center, 2018)

Purpose: 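Compare each knockdown with KSR1 silencing using changes in marker transcripts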 (primary screen)
System: HCT116 human colon cancer cells
Reagents: siRNA pool against human genes, 50 nM siRNA
Measured: 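mRNA of six signature genes measured together by branched-DNA assay after 50 nM siRNA pool, blank removed, divided by geometric mean of two housekeeping genes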
Scale: BNIP3L mRNA: higher = more BNIP3L transcript after knockdown; NDRG1 mRNA: higher = more NDRG1 transcript after knockdown; BNIP3 mRNA: higher = more BNIP3 transcript after knockdown; ALDOC mRNA: higher = more ALDOC transcript after knockdown; ACSL5 mRNA: higher = more ACSL5 transcript after knockdown
This is a random part of about 14,000 deposited reagents. Not stated in the record: the time to read-out.

| gene knocked down | BNIP3L mRNA, set 1 | NDRG1 mRNA, set 1 | BNIP3 mRNA, set 1 | ALDOC mRNA, set 1 | ACSL5 mRNA, set 1 |
| --- | --- | --- | --- | --- | --- |
| HDAC1 | 0.0754 | 0.465 | 0.201 | 0.0218 | 0.251 |
| SNX12 | 0.114 | 0.298 | 0.332 | 0.0403 | 0.169 |
| NUP62CL | 0.103 | 0.106 | 0.285 | 0.0395 | 0.119 |
| STAT6 | 0.099 | 0.632 | 0.397 | 0.0791 | 0.268 |
| EPHA5 | 0.0654 | 0.0608 | 0.263 | 0.0104 | 0.137 |
| MTHFD2L | 0.15 | 0.126 | 0.327 | 0.0243 | 0.136 |
| DIP2A | 0.226 | 0.188 | 0.444 | 0.05 | 0.213 |
| UXT | 0.0718 | 0.0877 | 0.3 | 0.0088 | 0.234 |
| RPL6 | 0.661 | 0.829 | 0.462 | 0.0497 | 0.256 |
| EMX1 | 0.088 | 0.303 | 0.264 | 0.00582 | 0.267 |
| LINC00115 | 0.136 | 0.363 | 0.266 | 0.0263 | 0.187 |
| CRAMP1 | 0.135 | 0.168 | 0.319 | 0.0274 | 0.177 |
| CLPX | 0.129 | 0.139 | 0.33 | 0.0439 | 0.23 |
| TFAP4 | 0.0747 | 0.113 | 0.283 | 0.0182 | 0.0939 |
| NUDT13 | 0.126 | 0.796 | 0.452 | 0.0224 | 0.163 |
| MRPS10 | 0.0813 | 0.105 | 0.279 | 0.0232 | 0.109 |
| ATAT1 | 0.133 | 0.309 | 0.294 | 0.0362 | 0.254 |
| CACNA1D | 0.292 | 0.108 | 0.428 | 0.0462 | 0.131 |
| GJA4 | 0.0971 | 0.664 | 0.467 | 0.00887 | 0.204 |
| MTPAP | 0.118 | 0.146 | 0.247 | 0.0188 | 0.161 |
| EDF1 | 0.234 | 0.299 | 1.21 | 0.0344 | 0.167 |
| SERF1A | 0.205 | 0.207 | 0.358 | 0.0483 | 0.227 |
| RSL1D1 | 0.138 | 0.503 | 0.495 | 0.0126 | 0.238 |
| RPA1 | 0.137 | 0.555 | 0.39 | 0.0458 | 0.263 |
| POLR2L | 0.0826 | 0.872 | 0.517 | 0.0629 | 0.243 |
| FBXW9 | 0.194 | 0.156 | 0.317 | 0.146 | 0.447 |
| PEX2 | 0.0905 | 0.0888 | 0.219 | 0.0154 | 0.111 |
| MRS2 | 0.0926 | 0.0896 | 0.224 | 0.0505 | 0.148 |
| CUBN | 0.0954 | 0.133 | 0.281 | 0.0237 | 0.173 |
| TM4SF20 | 0.259 | 0.209 | 0.511 | 0.0698 | 0.304 |
| PTMA | 0.0578 | 0.11 | 0.236 | 0.0267 | 0.134 |
| ABITRAM | 0.0798 | 0.111 | 0.228 | 0.0165 | 0.197 |
| TMEM63C | 0.205 | 0.169 | 0.17 | 0.0528 | 0.224 |
| PUM3 | 0.109 | 0.373 | 0.401 | 0.063 | 0.402 |
